The source of these data is article PMC6769930.

Chains of the proteins cited; added tags and fusions are not shown. Lines headed by an entry give the natural chain unless they say otherwise; changes in a name come on top. Residues count along the entry.
UniProt O14639: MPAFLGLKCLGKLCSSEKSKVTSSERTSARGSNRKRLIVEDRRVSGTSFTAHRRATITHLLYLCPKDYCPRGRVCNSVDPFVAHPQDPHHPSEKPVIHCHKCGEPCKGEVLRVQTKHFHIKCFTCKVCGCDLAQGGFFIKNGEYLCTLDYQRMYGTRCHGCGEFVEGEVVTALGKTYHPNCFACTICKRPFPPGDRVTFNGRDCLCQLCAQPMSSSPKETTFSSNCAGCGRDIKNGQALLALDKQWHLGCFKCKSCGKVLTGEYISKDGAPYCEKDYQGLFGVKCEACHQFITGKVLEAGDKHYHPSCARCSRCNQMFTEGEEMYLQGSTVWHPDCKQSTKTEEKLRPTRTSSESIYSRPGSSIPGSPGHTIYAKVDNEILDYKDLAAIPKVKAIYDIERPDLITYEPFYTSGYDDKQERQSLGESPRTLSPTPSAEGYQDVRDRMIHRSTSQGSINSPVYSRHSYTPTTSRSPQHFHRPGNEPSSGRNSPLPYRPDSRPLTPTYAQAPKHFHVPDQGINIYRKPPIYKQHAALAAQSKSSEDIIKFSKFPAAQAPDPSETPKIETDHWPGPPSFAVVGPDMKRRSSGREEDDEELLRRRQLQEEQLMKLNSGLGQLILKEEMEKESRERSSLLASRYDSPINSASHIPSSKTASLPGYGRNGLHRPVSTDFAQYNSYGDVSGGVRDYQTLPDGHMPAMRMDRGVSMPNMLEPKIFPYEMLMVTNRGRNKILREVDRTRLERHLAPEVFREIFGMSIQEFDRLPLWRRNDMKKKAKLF
UniProt P17813, residues 26-586: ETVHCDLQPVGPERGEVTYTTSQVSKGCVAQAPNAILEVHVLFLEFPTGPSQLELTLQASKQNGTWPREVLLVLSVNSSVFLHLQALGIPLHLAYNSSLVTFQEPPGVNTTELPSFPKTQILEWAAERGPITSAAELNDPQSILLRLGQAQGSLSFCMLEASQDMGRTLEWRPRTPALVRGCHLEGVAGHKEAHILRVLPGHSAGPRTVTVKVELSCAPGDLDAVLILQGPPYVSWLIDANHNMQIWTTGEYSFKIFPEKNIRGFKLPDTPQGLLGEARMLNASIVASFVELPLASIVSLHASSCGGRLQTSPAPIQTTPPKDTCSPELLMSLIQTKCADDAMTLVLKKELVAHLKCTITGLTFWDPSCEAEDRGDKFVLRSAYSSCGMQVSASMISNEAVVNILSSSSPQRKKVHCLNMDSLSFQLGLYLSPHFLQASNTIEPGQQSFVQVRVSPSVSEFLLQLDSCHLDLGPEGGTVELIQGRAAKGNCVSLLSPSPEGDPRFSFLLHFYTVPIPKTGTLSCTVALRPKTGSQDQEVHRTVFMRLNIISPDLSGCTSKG

The target of the experiment is Actin-binding LIM protein 1 (ABLIM1) (human) (UniProt O14639). The experiment in a line: peptide or protein array; ProtoArray human protein Microarray v5.0 (over 9000 human proteins arrayed) probed with recombinant sEng in two replicates; detection with anti-endoglin mAb SN6h and HRP secondary antibody; hits with Z-score >=2.0 in both arrays; both purified.

Results are given in words; binding and its absence hold for the method and conditions named. Binding calls can cover weak binding; strength is not graded here.

Consider “recombinant human soluble endoglin (sEng; Glu26-Gly586) (from UniProt P17813 26-586) (domain or fragment)”, for which the binding entry is given as “binds”.
